Drawing on the supplement of paper PMC6411743, this text covers NP40-soluble protein abundance for 25 targets.

By UniProt entry, the sequences of proteins in these tests, tags left out. Where a name states a change or a piece, a line headed by the entry shows the natural chain unless it says otherwise.
UniProt Q9UBS8: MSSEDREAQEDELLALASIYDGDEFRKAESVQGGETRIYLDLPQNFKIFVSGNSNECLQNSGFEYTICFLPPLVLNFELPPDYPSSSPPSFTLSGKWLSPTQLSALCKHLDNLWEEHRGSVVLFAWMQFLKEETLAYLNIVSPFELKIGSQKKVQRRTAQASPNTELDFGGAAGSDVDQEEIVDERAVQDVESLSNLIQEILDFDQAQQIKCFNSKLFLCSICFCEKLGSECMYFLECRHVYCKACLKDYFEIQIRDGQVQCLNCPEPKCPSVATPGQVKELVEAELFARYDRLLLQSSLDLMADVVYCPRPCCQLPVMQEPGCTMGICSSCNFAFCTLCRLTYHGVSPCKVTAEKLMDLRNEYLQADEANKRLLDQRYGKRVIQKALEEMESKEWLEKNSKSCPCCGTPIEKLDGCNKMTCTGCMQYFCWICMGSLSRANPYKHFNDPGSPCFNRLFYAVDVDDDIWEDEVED
UniProt Q9UNZ2: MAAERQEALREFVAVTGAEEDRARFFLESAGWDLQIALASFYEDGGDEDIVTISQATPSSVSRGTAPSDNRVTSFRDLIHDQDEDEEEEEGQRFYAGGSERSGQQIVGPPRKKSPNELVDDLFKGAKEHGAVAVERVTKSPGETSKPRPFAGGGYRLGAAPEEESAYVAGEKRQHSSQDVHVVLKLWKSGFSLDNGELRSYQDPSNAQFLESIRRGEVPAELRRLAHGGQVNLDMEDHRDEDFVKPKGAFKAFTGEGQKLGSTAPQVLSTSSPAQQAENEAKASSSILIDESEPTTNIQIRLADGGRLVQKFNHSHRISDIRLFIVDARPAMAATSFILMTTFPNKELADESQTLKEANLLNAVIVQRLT
UniProt Q9Y248: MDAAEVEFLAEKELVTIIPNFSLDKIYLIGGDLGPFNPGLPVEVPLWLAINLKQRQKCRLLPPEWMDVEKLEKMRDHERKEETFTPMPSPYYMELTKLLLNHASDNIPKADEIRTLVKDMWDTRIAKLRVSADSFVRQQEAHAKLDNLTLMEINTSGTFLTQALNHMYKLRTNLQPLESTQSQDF
UniProt Q9Y282: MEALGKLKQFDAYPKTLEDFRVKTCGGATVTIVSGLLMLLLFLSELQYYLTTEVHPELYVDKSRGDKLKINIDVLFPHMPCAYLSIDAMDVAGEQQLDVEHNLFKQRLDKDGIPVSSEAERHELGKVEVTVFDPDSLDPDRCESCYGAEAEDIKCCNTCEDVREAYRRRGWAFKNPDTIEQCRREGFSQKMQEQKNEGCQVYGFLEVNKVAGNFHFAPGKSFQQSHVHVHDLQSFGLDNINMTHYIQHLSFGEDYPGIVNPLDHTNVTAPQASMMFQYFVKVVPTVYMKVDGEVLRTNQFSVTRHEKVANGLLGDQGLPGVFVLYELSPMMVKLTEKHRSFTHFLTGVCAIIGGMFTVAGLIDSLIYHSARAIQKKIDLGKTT
UniProt Q9UJX6, whole entry: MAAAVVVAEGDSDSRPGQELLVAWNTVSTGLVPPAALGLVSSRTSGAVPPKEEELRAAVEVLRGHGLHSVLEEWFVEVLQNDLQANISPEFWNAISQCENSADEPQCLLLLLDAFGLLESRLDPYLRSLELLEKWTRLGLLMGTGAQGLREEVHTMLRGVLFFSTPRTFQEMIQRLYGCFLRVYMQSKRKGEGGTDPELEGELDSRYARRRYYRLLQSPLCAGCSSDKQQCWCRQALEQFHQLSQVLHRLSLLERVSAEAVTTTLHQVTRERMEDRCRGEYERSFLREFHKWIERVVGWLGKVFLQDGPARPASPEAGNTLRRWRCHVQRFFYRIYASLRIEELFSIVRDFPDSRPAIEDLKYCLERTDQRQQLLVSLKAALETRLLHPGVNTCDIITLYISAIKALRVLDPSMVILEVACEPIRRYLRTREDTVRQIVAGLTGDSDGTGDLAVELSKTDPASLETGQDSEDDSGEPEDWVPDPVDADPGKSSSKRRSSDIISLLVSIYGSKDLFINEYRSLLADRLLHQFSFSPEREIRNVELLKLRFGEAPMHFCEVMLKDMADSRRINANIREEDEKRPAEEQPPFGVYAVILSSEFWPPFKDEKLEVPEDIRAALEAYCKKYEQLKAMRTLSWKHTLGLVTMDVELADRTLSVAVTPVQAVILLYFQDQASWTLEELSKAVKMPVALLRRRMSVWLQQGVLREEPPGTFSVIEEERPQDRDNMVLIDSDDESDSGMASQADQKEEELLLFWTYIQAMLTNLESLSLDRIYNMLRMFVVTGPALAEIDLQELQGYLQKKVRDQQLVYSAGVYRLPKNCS
UniProt Q9UI09, whole entry: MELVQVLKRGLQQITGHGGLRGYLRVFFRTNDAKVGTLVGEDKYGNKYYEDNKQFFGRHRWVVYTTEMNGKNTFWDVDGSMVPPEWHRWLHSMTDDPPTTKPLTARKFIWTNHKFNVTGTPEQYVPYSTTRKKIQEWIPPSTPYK
UniProt Q9UQE7: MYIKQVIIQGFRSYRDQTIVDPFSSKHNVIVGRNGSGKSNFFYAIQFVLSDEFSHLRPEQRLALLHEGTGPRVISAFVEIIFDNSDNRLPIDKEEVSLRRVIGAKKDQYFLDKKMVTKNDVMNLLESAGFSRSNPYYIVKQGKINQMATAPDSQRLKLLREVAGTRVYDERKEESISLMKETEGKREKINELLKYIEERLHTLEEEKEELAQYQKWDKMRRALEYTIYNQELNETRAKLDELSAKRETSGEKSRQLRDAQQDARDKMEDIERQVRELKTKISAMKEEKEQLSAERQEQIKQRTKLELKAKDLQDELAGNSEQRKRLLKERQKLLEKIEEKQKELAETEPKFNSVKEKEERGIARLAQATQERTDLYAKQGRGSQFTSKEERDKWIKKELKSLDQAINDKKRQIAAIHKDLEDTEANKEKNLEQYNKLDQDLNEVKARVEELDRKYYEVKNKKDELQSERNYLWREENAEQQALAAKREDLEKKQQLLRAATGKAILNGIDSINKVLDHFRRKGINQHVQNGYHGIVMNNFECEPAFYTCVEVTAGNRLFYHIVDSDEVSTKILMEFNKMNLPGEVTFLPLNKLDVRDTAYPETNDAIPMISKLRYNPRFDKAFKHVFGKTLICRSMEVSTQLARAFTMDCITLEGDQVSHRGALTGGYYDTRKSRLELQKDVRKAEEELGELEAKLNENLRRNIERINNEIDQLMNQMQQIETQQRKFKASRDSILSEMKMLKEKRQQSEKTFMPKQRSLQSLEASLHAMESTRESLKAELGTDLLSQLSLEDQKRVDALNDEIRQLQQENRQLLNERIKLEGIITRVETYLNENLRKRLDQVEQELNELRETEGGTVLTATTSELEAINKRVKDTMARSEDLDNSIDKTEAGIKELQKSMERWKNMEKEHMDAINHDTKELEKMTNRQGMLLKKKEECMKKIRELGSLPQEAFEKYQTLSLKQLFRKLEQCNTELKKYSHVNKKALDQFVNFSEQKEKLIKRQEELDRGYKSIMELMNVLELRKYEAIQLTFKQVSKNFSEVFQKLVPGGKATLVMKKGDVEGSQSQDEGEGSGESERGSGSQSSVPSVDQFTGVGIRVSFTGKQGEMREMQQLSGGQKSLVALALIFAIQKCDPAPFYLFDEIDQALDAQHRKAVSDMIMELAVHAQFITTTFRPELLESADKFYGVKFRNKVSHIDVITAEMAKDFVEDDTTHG
UniProt Q9UHW5, whole entry: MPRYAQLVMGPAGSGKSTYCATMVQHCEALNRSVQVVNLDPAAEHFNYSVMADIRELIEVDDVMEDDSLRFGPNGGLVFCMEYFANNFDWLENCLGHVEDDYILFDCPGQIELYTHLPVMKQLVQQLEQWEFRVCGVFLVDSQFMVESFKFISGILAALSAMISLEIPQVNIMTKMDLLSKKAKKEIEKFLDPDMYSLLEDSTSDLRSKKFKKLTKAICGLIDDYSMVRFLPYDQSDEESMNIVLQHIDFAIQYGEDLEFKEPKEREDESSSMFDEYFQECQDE
UniProt Q9ULJ3: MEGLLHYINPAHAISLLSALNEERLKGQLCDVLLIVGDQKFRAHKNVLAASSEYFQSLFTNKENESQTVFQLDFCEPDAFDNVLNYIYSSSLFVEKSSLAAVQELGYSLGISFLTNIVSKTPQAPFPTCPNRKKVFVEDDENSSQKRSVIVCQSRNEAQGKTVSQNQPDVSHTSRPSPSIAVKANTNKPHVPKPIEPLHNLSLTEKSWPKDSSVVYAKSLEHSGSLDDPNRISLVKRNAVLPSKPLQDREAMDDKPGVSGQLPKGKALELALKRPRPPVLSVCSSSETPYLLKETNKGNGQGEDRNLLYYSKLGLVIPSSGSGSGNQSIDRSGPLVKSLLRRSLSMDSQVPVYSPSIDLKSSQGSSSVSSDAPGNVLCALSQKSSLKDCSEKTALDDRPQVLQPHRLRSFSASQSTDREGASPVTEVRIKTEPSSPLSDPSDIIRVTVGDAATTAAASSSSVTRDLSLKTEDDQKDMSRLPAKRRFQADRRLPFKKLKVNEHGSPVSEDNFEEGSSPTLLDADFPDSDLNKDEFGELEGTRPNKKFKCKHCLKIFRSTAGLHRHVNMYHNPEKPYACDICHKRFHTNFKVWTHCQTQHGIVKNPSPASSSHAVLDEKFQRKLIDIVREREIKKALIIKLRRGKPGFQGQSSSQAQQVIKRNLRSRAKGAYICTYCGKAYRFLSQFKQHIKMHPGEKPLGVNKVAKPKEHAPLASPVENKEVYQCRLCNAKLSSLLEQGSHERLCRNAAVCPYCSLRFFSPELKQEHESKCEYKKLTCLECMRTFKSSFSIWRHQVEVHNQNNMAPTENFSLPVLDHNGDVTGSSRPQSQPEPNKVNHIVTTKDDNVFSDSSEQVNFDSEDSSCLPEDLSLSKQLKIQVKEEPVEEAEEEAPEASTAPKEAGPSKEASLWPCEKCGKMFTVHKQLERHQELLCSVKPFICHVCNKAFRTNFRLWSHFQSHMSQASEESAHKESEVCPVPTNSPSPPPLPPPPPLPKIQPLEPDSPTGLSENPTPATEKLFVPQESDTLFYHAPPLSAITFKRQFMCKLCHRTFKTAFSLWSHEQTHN
UniProt Q9UDY8: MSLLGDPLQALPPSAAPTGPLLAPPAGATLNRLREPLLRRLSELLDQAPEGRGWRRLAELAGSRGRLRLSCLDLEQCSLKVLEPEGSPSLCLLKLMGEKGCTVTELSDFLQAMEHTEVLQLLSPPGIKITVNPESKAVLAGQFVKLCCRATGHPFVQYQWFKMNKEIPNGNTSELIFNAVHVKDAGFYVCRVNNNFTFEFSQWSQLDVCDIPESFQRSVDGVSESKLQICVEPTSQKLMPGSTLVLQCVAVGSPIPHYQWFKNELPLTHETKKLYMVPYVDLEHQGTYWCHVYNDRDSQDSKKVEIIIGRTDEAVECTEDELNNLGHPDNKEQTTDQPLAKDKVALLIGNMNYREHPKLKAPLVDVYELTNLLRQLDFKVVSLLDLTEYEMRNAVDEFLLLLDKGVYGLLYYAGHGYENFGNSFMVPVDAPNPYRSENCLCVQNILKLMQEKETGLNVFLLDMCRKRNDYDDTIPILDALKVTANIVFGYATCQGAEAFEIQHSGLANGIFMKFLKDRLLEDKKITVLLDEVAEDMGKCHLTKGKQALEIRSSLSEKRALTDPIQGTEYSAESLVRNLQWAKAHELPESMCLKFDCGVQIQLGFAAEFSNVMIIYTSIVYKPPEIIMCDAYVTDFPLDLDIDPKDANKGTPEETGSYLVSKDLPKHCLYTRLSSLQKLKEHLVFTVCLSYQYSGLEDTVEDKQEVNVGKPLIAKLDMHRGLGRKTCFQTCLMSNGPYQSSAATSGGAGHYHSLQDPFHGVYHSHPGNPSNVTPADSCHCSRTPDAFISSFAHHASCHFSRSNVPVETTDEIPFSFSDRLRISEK
UniProt Q9UHY1: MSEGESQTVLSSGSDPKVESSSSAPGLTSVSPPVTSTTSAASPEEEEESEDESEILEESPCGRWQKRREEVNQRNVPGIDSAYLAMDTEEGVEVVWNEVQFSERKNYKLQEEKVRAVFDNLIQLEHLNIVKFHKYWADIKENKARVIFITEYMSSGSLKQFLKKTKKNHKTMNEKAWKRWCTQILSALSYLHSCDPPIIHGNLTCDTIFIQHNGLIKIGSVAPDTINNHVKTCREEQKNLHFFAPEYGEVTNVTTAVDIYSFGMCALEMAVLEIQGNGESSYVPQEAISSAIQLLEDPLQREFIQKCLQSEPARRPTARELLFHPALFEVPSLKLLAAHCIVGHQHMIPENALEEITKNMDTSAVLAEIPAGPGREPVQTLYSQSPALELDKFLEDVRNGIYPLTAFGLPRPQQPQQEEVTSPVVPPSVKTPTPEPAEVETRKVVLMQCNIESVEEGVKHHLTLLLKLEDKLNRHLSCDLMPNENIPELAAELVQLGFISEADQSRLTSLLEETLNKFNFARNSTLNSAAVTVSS
UniProt Q9ULC3: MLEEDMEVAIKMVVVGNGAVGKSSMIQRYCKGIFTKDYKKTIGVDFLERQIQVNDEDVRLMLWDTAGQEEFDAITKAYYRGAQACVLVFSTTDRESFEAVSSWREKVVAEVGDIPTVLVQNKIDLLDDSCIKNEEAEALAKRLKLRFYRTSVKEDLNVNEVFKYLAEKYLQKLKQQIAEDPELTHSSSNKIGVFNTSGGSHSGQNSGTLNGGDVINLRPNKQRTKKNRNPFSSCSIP

± gives the standard deviation of the averaged measurements. This is a selection; strong and weak results do not stand in their true shares.

Compound in the experiment: Nc1ncnc2c1ncn2[C@@H]1O[C@H](COP(=O)(O)OP(=O)(O)NP(=O)(O)O)[C@@H](O)[C@H]1O [adenylyl imidodiphosphate]
Description: NP40-soluble protein abundance relative to vehicle (solubility fold change) (ratio); higher = more soluble protein in presence of AMP-PNP. The following applies: concentration: 1mM. The method, boiled down: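 Eight concentrations, 0.1 to 10 mM, were tested on Jurkat crude lysate for 10 min at room temperature and then 3 min at 37 °C, in three independent experiments. The lysate was solubilised with 0.8% NP40 and benzonase, ultracentrifuged, and the supernatant TMT-labelled for LC-MS/MS. Each value is the fold change against the detergent-processed vehicle in its own replicate, from vsn-normalised intensities.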
Regarding UniProt Q9UBS8 and related entries, the NP40-soluble protein abundance came out at 1.01 ± 0.039.
The value for TPX2 (UniProt Q9ULW0) was 1.09 ± 0.013; that for NSFL1C (UniProt Q9UNZ2) was 0.977 ± 0.023.
The value for AASS (UniProt Q9UDR5) was 0.9781 ± 0.0043.
For the target GINS2 (UniProt Q9Y248), the NP40-soluble protein abundance is 0.9801 ± 0.008.
Under UniProt Q9UNF0 and related entries stands 1.03 ± 0.02; under GTF3C4 (UniProt Q9UKN8), 1.01 ± 0.06.
Regarding UniProt Q9Y282 and related entries, the NP40-soluble protein abundance is 1.03 ± 0.041.
Under UniProt Q9Y320 and related entries stands 0.936 ± 0.038.
The value for UniProt Q9UJX6 and related entries was 0.953 ± 0.034; that for NDUFA12 (UniProt Q9UI09) was 0.978 ± 0.05; that for UniProt Q9UNS1 and related entries was 0.986 ± 0.035.
As for TBK1 (UniProt Q9UHD2), the NP40-soluble protein abundance was 0.994 ± 0.024.
Consider SMC3 (UniProt Q9UQE7), for which the NP40-soluble protein abundance came to 1.02 ± 0.033.
With UniProt Q9ULR0 and related entries, the NP40-soluble protein abundance was 1.011 ± 0.0053.
With UniProt Q9UJX5 and related entries, the NP40-soluble protein abundance was found to be 0.98 ± 0.011.
Turning to UniProt Q9UP83 and related entries, the NP40-soluble protein abundance was 1 ± 0.035.
Under UniProt Q9UHW5 and related entries stands 0.99 ± 0.018; under UniProt Q9ULJ3 and related entries, 1.02 ± 0.029; under UniProt Q9ULT8 and related entries, 0.994 ± 0.043.
In the case of GSTK1 (UniProt Q9Y2Q3), the NP40-soluble protein abundance worked out at 0.993 ± 0.032.
On to UniProt Q9UDY8 and related entries, for which the NP40-soluble protein abundance was found to be 0.995 ± 0.021.
The value for UniProt Q9UMS0 and related entries was 1.04 ± 0.047; that for NRBP1 (UniProt Q9UHY1) was 1.03 ± 0.021; that for RAB23 (UniProt Q9ULC3) was 0.9714 ± 0.0024.
